Results published in paper PMC12963976.

Chains of the proteins cited; added tags and fusions are not shown. Lines headed by an entry give the natural chain unless they say otherwise; changes in a name come on top.
UniProt P15208: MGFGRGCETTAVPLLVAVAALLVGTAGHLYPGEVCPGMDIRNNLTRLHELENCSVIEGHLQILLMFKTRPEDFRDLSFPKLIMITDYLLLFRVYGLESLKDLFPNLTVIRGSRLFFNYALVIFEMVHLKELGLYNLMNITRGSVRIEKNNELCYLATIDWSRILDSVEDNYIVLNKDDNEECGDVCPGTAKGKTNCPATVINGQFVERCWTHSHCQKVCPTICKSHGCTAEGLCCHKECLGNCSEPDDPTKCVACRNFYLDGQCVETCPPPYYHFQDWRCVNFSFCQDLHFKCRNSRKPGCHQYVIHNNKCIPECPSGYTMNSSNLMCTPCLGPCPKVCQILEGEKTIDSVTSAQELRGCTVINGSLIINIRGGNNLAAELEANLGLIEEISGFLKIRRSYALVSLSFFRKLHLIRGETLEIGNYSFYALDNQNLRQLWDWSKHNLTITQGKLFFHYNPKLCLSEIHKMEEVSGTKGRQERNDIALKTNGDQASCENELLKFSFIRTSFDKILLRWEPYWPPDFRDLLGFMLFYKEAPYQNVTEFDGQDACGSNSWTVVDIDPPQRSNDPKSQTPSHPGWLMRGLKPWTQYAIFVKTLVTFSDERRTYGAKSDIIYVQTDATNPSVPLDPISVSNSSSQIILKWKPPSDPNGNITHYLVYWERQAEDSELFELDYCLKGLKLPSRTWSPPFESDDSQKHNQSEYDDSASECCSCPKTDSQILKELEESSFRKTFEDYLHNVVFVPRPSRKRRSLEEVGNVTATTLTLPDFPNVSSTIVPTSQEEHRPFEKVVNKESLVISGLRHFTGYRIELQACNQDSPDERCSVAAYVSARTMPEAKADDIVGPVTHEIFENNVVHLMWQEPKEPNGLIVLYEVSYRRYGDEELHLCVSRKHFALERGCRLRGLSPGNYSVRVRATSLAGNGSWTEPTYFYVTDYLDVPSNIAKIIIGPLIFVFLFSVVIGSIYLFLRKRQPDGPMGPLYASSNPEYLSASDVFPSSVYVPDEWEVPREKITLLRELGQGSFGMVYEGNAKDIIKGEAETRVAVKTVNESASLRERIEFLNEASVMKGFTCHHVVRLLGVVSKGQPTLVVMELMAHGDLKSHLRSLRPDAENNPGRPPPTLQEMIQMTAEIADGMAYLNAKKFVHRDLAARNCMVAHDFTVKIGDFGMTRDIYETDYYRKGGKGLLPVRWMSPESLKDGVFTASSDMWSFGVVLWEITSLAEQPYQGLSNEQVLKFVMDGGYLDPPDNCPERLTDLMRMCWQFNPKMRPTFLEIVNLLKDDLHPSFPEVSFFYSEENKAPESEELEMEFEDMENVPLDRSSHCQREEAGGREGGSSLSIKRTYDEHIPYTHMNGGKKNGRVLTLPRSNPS
UniProt P43276: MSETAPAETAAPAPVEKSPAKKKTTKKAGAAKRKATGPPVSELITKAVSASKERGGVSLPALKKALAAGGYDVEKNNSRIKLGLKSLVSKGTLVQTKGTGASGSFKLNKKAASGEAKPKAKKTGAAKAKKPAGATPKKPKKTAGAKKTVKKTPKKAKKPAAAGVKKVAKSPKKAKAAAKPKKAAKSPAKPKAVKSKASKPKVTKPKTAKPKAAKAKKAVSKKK
UniProt P07356: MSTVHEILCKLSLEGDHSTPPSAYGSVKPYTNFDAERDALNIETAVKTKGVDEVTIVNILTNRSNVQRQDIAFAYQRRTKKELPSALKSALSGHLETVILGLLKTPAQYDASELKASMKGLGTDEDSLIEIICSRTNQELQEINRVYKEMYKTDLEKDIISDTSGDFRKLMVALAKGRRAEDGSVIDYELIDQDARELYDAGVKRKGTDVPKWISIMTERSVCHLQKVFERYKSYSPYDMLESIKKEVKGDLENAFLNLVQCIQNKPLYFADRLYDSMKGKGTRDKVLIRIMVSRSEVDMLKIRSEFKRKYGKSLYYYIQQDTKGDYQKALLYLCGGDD

Target: insulin receptor (INSR), endogenous in C2C12 myoblasts (mouse (endogenous in C2C12)) (UniProt P15208)
Assay: affinity purification with mass spectrometry; INSR immunoprecipitated from C2C12 myoblast lysates (RIPA buffer) with INSR-alpha antibody NNC0276-3000 covalently conjugated to Dynabeads M-270 Epoxy; cells serum-starved 6 h, then 0 or 2 nM insulin for 15 minutes; INSR knockout C2C12 cells as negative control; LC-MS/MS, MaxLFQ

| Substance | binding |
| --- | --- |
| HIST1H1B (linker histone) (from UniProt P43276 1-223) | binds |
| annexin A2 (ANXA2) (from UniProt P07356 1-339) | binds |

No constants are given. Whether binding was seen depends on the method and setting. Binding seen in cells or lysates may run through a third protein. These calls come from enrichment with a bait or labelling near it, and not all partners need be listed.
